Measurements: the supplement of paper PMC7661543
± gives the standard deviation of the averaged measurements. The effect of the compound repeats well; differences between the knockouts mostly do not.

System: ZR-75-1
Test: relative cell number vs DMSO control (72 h) (% of DMSO); higher = less growth inhibition (more cells)
Description: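 QMAP-Seq: a pool of 5 breast cancer cell lines (ZR-75-1, SKBR3, HCC-38, MDA-MB-231, BT-20), each carrying 12 doxycycline-inducible Cas9 sgRNA perturbations (11 knockouts plus non-targeting sgNT), was treated with compounds for 72 h at four 10-fold doses (10 nM-10 uM or 1 nM-1 uM range). Barcodes were amplified and sequenced, and cell number was interpolated from 293T spike-in standard curves. The result is expressed as % of the median of DMSO wells. Two biological replicates.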

[1] = sgRNA knockout: sgATF3, 1000 nM
[2] = sgRNA knockout: sgATF3, 10000 nM
[3] = sgRNA knockout: sgATF4, 1000 nM
[4] = sgRNA knockout: sgATF4, 10000 nM
[5] = sgRNA knockout: sgATF6, 1000 nM
[6] = sgRNA knockout: sgATF6, 10000 nM
[7] = sgRNA knockout: sgATG7, 1000 nM
[8] = sgRNA knockout: sgATG7, 10000 nM
[9] = sgRNA knockout: sgERN1, 1000 nM
[10] = sgRNA knockout: sgERN1, 10000 nM
[11] = sgRNA knockout: sgHSF2, 1000 nM
[12] = sgRNA knockout: sgHSF2, 10000 nM
[13] = sgRNA knockout: sgNFE2L2, 10 nM
[14] = sgRNA knockout: sgNFE2L2, 100 nM
[15] = sgRNA knockout: sgNFE2L2, 1000 nM
[16] = sgRNA knockout: sgNFE2L2, 10000 nM
[17] = sgRNA knockout: sgSLC35F2, 10 nM
[18] = sgRNA knockout: sgSLC35F2, 100 nM
[19] = sgRNA knockout: sgSLC35F2, 1000 nM
[20] = sgRNA knockout: sgSLC35F2, 10000 nM
[21] = sgRNA knockout: sgXBP1, 1000 nM
[22] = sgRNA knockout: sgXBP1, 10000 nM

Row | Structure (SMILES) | relative cell number (sgRNA knockout: sgATF3, 10 nM) | relative cell number (sgRNA knockout: sgATF3, 100 nM) | relative cell number [1] | relative cell number [2] | relative cell number (sgRNA knockout: sgATF4, 10 nM) | relative cell number (sgRNA knockout: sgATF4, 100 nM) | relative cell number [3] | relative cell number [4] | relative cell number (sgRNA knockout: sgATF6, 10 nM) | relative cell number (sgRNA knockout: sgATF6, 100 nM) | relative cell number [5] | relative cell number [6] | relative cell number (sgRNA knockout: sgATG7, 10 nM) | relative cell number (sgRNA knockout: sgATG7, 100 nM) | relative cell number [7] | relative cell number [8] | relative cell number (sgRNA knockout: sgERN1, 10 nM) | relative cell number (sgRNA knockout: sgERN1, 100 nM) | relative cell number [9] | relative cell number [10] | relative cell number (sgRNA knockout: sgHSF2, 10 nM) | relative cell number (sgRNA knockout: sgHSF2, 100 nM) | relative cell number [11] | relative cell number [12] | relative cell number [13] | relative cell number [14] | relative cell number [15] | relative cell number [16] | relative cell number [17] | relative cell number [18] | relative cell number [19] | relative cell number [20] | relative cell number (sgRNA knockout: sgXBP1, 10 nM) | relative cell number (sgRNA knockout: sgXBP1, 100 nM) | relative cell number [21] | relative cell number [22]
1 | CC(C)[C@H](O)C(=O)N[C@@H](C)C(=O)N[C@@H]1C(=O)N(C)CCc2ccccc21 [Semagacestat] | 103 ± 14 | 110 ± 8.8 | 105 ± 25 | 98.6 ± 12 | 84.8 ± 2.4 | 73.9 ± 8.2 | 54.2 ± 11 | 113 ± 34 | 111 ± 7.4 | 62.3 ± 14 | 85.2 ± 5.9 | 53.2 ± 19 | 98.7 ± 25 | 83.8 ± 1.2 | 82.1 ± 0.84 | 118 ± 32 | 104 ± 7.3 | 91.7 ± 22 | 122 ± 29 | 83.1 ± 12 | 103 ± 4.3 | 100 ± 15 | 108.4 ± 0.61 | 105 ± 11 | 110.8 ± 1.1 | 64.68 ± 0.58 | 85.6 ± 50 | 125 ± 52 | 77.8 ± 27 | 84.7 ± 29 | 67.9 ± 9.1 | 104 ± 16 | 111.2 ± 1.1 | 76.8 ± 10 | 111 ± 27 | 104 ± 23
2 | CCC(C)(C)C(=O)O[C@H]1C[C@@H](C)C=C2C=C[C@H](C)[C@H](CC[C@@H]3C[C@@H](O)CC(=O)O3)[C@H]21 [Simvastatin] | 96 ± 1.3 | 62.4 ± 6.1 | 85.2 ± 7.8 | 66.3 ± 7.6 | 93 ± 34 | 92.9 ± 26 | 50.2 ± 45 | 102 ± 12 | 95 ± 27 | 108 ± 6.8 | 61.5 ± 12 | 85.4 ± 24 | 121 ± 32 | 73.5 ± 10 | 136 ± 43 | 83 ± 6.4 | 106 ± 12 | 102.3 ± 0.45 | 83.3 ± 0.36 | 76.5 ± 15 | 99.5 ± 13 | 89.4 ± 4.6 | 107 ± 11 | 81.5 ± 11 | 122 ± 10 | 103 ± 29 | 97.4 ± 13 | 89.5 ± 7.8 | 84.4 ± 0.27 | 75.6 ± 1.6 | 83.1 ± 31 | 70.3 ± 16 | 89.1 ± 2.8 | 110 ± 9.8 | 104 ± 0.71 | 80.5 ± 22
3 | CC(C)n1cnc2c(NCCc3ccc(O)cc3)nc(-c3csc4ccccc34)nc21 [StemRegenin1] | 91.7 ± 1.2 | 164 ± 26 | 128 ± 55 | 38.2 ± 7.5 | 93.8 ± 14 | 167 ± 60 | 89.7 ± 4.3 | 38.8 ± 4.9 | 82.3 ± 32 | 119 ± 31 | 88.9 ± 38 | 60.9 ± 9.4 | 97.9 ± 17 | 117 ± 4.5 | 94.2 ± 2.6 | 50.3 ± 1.3 | 89.9 ± 8.3 | 131 ± 9.7 | 95.2 ± 23 | 52.7 ± 9.5 | 94.6 ± 14 | 127 ± 11 | 128 ± 15 | 55.27 ± 0.22 | 101 ± 30 | 139 ± 11 | 79.9 ± 2.7 | 38.8 ± 2.9 | 125 ± 53 | 114 ± 44 | 120 ± 110 | 34 ± 6.2 | 90 ± 6.7 | 122 ± 8.1 | 109 ± 2 | 39.4 ± 7
4 | O=C1NC(=O)[C@@H](c2cn3c4c(cccc24)CCC3)[C@@H]1c1c[nH]c2ccccc12 [Tivantinib] | 81.9 ± 17 | 104 ± 22 | 34.3 ± 9.6 | 22.7 ± 0.57 | 79 ± 2.6 | 120 ± 77 | 37.5 ± 15 | 23.8 ± 12 | 108 ± 31 | 56.8 ± 17 | 44.8 ± 12 | 18.9 ± 5.8 | 91.3 ± 14 | 90.2 ± 31 | 23.7 ± 1.5 | 20.2 ± 1.7 | 90 ± 12 | 86 ± 25 | 27.7 ± 8.3 | 32.1 ± 5 | 84.9 ± 11 | 83.4 ± 11 | 26 ± 9.6 | 19.5 ± 7.2 | 90.8 ± 24 | 81.7 ± 14 | 32.2 ± 3.9 | 20.1 ± 4.9 | 117 ± 10 | 83.9 ± 37 | 28.6 ± 17 | 20.46 ± 0.052 | 75.2 ± 15 | 84.2 ± 2.7 | 32.6 ± 5.2 | 26.1 ± 8.2
5 | CC[C@]1(O)C[C@H]2CN(CCc3c([nH]c4ccccc34)[C@@](C(=O)OC)(c3cc4c(cc3OC)N(C=O)[C@H]3[C@@](O)(C(=O)OC)[C@H](OC(C)=O)[C@]5(CC)C=CCN6CC[C@]43[C@@H]65)C2)C1 [Vincristine] | 39.1 ± 5.8 | 18.1 ± 4 | 18.9 ± 1.9 | 16.3 ± 3.1 | 48.4 ± 11 | 33.2 ± 6.5 | 15.2 ± 0.95 | 13.6 ± 0.29 | 30.9 ± 6.5 | 20 ± 3 | 6.37 ± 3.1 | 9.55 ± 3 | 30.7 ± 2.2 | 21.2 ± 2.7 | 13.2 ± 6 | 9.16 ± 6.9 | 42.4 ± 7.9 | 20.2 ± 3.6 | 16.7 ± 1.5 | 16.6 ± 8.2 | 28.2 ± 2.6 | 22.1 ± 5.9 | 15.5 ± 0.8 | 10.5 ± 3.6 | 30.9 ± 12 | 15.4 ± 1.1 | 12.7 ± 1.4 | 10.8 ± 2.3 | 48.6 ± 26 | 19.8 ± 1.6 | 13.5 ± 7.3 | 19 ± 2.1 | 37.2 ± 5.8 | 20.2 ± 5 | 10.9 ± 1.1 | 7.63 ± 2
